For at least one compound, name, drawing or mass did not settle the structure.
Tested on: NF-κB p65
Test: HCS assay of compound-induced NF-κB p65 nuclear translocation in HPTC (Example 2)
Type: cell-based, human
Details: 16 hours, 1.6-1000 μg/mL, 96-well plates, HCS images

With CN(C)[C@@H]1C(O)=C(C(N)=O)C(=O)[C@@]2(O)C(O)=C3C(=O)c4c(O)cccc4[C@@](C)(O)[C@H]3C[C@@H]12 [tetracycline] the “Qualitative analysis of NF-κB translocation (visual inspection)” value was “positive”.

Reference: patent publication US20170082610A1, “METHOD FOR PREDICTING TOXICITY OF A COMPOUND BASED ON NUCLEAR FACTOR-kB TRANSLOCATION” (priority 2014, published 2017)
